For one test, the target named is T1, IRF3-GlucC (UniProt Q14653).
T1 sequence: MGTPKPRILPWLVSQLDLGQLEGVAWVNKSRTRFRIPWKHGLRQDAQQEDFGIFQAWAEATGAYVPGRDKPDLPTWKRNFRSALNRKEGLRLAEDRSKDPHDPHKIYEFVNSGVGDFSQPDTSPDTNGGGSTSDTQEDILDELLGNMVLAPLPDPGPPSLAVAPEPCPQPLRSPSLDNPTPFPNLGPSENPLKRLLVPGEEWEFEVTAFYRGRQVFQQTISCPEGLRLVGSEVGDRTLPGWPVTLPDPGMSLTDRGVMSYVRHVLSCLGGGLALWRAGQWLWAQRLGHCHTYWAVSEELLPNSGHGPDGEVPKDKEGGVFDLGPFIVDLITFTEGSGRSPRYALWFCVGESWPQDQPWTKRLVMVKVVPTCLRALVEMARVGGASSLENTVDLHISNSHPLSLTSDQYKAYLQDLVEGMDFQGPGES
Put plainly: split reporter; bimolecular luminescence complementation (Gaussia luciferase GlucN/GlucC) in HEK293T, 24 h after transfection, with or without poly(I:C) (1 μg/mL) for 6 h; luciferase measured from cell lysates.

Amino acid sequences for entries named in this document (tags omitted). A change or cut given only in a name is not applied to a line headed by its entry.
UniProt P45974: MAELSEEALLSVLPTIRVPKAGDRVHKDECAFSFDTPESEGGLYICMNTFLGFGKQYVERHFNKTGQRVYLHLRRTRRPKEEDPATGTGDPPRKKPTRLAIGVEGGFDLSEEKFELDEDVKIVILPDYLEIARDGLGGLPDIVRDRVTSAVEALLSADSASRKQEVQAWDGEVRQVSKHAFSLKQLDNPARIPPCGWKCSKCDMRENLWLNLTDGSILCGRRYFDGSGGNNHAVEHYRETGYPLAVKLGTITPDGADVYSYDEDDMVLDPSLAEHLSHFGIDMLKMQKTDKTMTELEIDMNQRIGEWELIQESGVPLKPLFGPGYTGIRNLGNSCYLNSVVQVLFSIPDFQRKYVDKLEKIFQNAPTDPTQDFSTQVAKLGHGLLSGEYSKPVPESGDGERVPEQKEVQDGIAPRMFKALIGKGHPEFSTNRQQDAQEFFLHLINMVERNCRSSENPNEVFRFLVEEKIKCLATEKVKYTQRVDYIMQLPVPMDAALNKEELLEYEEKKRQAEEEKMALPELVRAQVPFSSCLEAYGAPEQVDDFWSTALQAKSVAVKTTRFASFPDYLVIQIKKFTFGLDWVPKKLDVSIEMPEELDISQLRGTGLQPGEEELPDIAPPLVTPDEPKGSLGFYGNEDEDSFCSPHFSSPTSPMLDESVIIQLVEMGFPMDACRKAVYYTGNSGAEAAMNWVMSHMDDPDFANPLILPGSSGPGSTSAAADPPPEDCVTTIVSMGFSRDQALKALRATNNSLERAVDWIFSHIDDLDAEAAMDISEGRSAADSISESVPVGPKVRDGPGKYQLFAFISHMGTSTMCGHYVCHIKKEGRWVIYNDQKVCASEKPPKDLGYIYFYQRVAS

The target of a further test is T2, Flag-IRF3 (UniProt Q14653).
T2 sequence: T1 sequence
Put plainly: proximity ligation; Duolink in situ PLA in HEK293T co-transfected for 24 h with Myc-USP5 and Flag-IRF3 constructs, then SeV (0.1 MOI) for 6 h; mouse anti-Flag and rabbit anti-Myc.

Test [1] concerns the target T3, IRF3 (endogenous, A549) (human (endogenous in A549)) (UniProt Q14653).
T3 sequence: T1 sequence
Put plainly: proximity ligation; Duolink in situ PLA of endogenous proteins in A549 cells, mouse anti-USP5 and rabbit anti-IRF3, with or without SeV (0.1 MOI) for 6 h.

Results are given in words; binding and its absence hold for the method and conditions named. Binding seen in cells or lysates may run through a third protein. Some entries that bind do so weakly or less than the wild type. For some of these results: Tags and fused reporters may be left off the sequences shown.

On to “USP5-GlucN (from UniProt P45974 1-858) (enzyme)”, for which the binding result with IRF3-GlucC was “binds”.

Consider “Myc-USP5 (from UniProt P45974 1-858) (enzyme)”, for which the binding result with Flag-IRF3 was “binds”. For “USP5 (endogenous, A549) (from UniProt P45974 1-858) (enzyme)”, the binding entry in test [1] is “binds”. “Myc-USP5-C335A (from UniProt P45974 1-858) (enzyme)”: the binding result with Flag-IRF3 is given as “binds”.

Source of the values: publication PMC11737852 (2025).
